Source: PubChem BioAssay AID2685 (National Center for Advancing Translational Sciences (NCATS), 2010)
This is one part of the list. Shown are side measurements of this screen, not its main read-out; they come without a call. The list favours compounds with an active or inconclusive main result. The note in brackets gives the kind of curve behind each potency; many fits are weak.

Assay: qHTS Assay for Lipid Storage Modulators in Drosophila S3 Cells;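 on cell number change: cells counted by Cell Tracker Red CMTPX staining in the red channel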
Settings: BODIPY lipid droplet fluorescence, 18-24 h; for cell number change: measured here: cell count max response, cells fed with added oleic acid
Method in brief: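 Drosophila S3 cells got compounds at several concentrations plus oleic acid (400 uM solution). Laser-scanning cytometry with 488 nm excitation read lipid droplets at 500-530 nm and cells at 575-640 nm. Percent activity was relative to 20 uM Triacsin C.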

[1] = measured here: cell number channel AC50, cells fed with added oleic acid
[2] = measured here: lipid fluorescence (Fed channel) AC50, cells fed with added oleic acid

SMILES | cell number change | AC50 [1] | AC50 [2]
N#Cc1ccc(CSc2ncccn2)cc1 | 29% | 0.0651 µM [rising, full curve, poor fit] | 16.4 µM [rising, partial curve]
C=CCNc1nc(Nc2cc(Cl)ccc2OC)nc(OC)n1 | -6.08% |  | 18.4 µM [rising, single point]
O=C(Nc1nc(-c2ccccn2)cs1)c1cccc(S(=O)(=O)N2CCOCC2)c1 | -37.1% | 13 µM [falling, partial curve] | 0.58 µM [falling, full curve, poor fit]
CNC(=O)c1sccc1-n1cccc1 | -20.6% | 1.3 µM [falling, full curve] | 0.731 µM [falling, full curve]
O=C(CO)N/N=C/c1cccc(Cl)c1Cl | 14.3% |  | 6.51 µM [falling, single point]
O=C(O)/C(=C/c1cccnc1)NC(=O)c1ccccc1 | -19.1% |  | 29.1 µM [falling, single point]
CNC(=O)c1ccc(Nc2nnc(-c3ccc(C)c(S(N)(=O)=O)c3)c3ccccc23)cc1 | 23.4% | 4.11 µM [rising, single point] | 
COc1ccc(OC(C)C(=O)N(C)Cc2nc(-c3ccc(C)cc3)no2)cc1 (stereo not drawn) | 26.7% |  | 0.58 µM [rising, partial curve, poor fit]
O=C(c1cn(-c2ccccc2)nc1-c1ccccc1)N1CCN(c2ccccn2)CC1 | 2.46% |  | 25.9 µM [rising, partial curve, poor fit]
COc1ccccc1-c1cc(C(F)(F)F)nc(S(=O)(=O)CCCC(=O)NC(C)C)n1 | -19.3% | 0.00411 µM [falling, full curve, poor fit] | 29.1 µM [rising, single point]
O=C(O)c1cccc(NS(=O)(=O)c2ccc(Cl)c(C(=O)O)c2)c1 | -1.55% |  | 0.651 µM [falling, full curve, poor fit]
CCOc1cc(C(=S)N2CCC(O)CC2)ccc1OS(=O)(=O)c1ccc(Br)cc1 | 36.9% | 29.1 µM [rising, single point] | 
COC(=O)c1cc(C(=O)NCCC(C)C)cc([N+](=O)[O-])c1 | 2.43% |  | 0.0058 µM [rising, full curve, poor fit]
O=C(CSc1nnnn1-c1ccc2c(c1)OCO2)NCc1ccccc1 |  |  | 6.51 µM [rising, single point]
COc1ccc(CNC(=O)c2ccc(NS(=O)(=O)c3c(C)noc3C)cc2)cc1 | -0.568% |  | 
Cc1nc(SCc2ccccc2F)c2cnn(-c3ccccc3)c2n1 | 14.6% |  | 
